# Out of some 2,100 compounds screened, about 210 (10%) were called active. The shares of active, inactive and inconclusive entries below differ from those in the screen. Calls come from the whole dose curve; as a rule, active = well fitted inhibition curve with a large enough effect; inconclusive = small, poorly fitted or top-dose-only effect, or effect the other way; inactive = no such curve, though single readings can be large or run the other way. Where the call is inconclusive, the potency comes from a doubtful curve fit.
# Assay: IN Cell qHTS Assay for Inhibitors of the mTORC1 Signaling Pathway in MEF (Tsc2-/-, p53-/-) Cells: Sytravon; note: nearly all actives have a fitted effect of over 60% in size
# Settings: phospho-rpS6 immunofluorescence, 24 h; activity, negative = inhibition: at 38.3 µM (top of the series)
# In short: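 Immunofluorescence of rpS6 phosphorylation (Ser235/236) in mouse embryonic fibroblasts lacking Tsc2 and p53, after 24 h compound exposure; Hoechst-normalized signal imaged, each well scored as % active cells relative to rapamycin (7.5 nM) and DMSO controls.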
# Potency is the fitted concentration of half-maximal effect.
Compound,Potency,"activity, negative = inhibition"
COc1cc(NS(=O)(=O)c2ccc3[nH]c4c(c3c2)CCCCCC4)cc(OC)c1,"inconclusive: 18.5 µM [falling, partial curve, poor fit]",–
Cc1ccccc1OCC(O)Cn1c(=N)n(CCN2CCCCC2)c2ccccc21 (stereo not given),active: 5.85 µM,–
COc1ccc(OC)c(NC(=O)CN2C(=O)COc3ccc(S(=O)(=O)NC4CCCC4)cc32)c1,–,inactive: 0%
Cc1cncn1CCc1nc2c3ccccc3nc(SCC(=O)Nc3cccc(Cl)c3)n2n1,"inconclusive: 23.3 µM [falling, partial curve, poor fit]",–
Cc1cccc(Cn2cc(C(=O)Nc3ccc(F)c(C(F)(F)F)c3)ccc2=O)c1,"inconclusive: 14.7 µM [falling, single point]",–
COc1ccc(CCNC(=O)CSc2nc3ccccc3nc2Cc2ccc(Cl)cc2)cc1OC,"inconclusive: 0.464 µM [falling, full curve, poor fit]",–
COc1ccc(C(=O)Nc2ccc3nc(N4CCCCC4)cc(C)c3c2)cc1OC,"inconclusive: 23.3 µM [falling, single point]",–
COc1ccccc1C(=O)N1c2ccccc2C(C)(c2ccc(Cl)cc2)CC1(C)C (stereo not given),"inconclusive: 26.1 µM [falling, single point]",–
COc1ccc(OC)c(Nc2ncnc3c2cnn3-c2cccc(Cl)c2)c1,–,inactive: 6.25%
CCC1=Nc2cc(C(=O)NCC(C)c3ccccc3)ccc2Sc2ccc(C)cc21 (stereo not given),–,inactive: 3.53%
COc1ccc2nc(NC(=O)c3nc(S(=O)(=O)Cc4ccccc4)ncc3Cl)sc2c1,active: 5.85 µM,–
CCN(CC)CCNC(=O)c1cc(-c2ccc(Br)s2)nc2ccccc12,"inconclusive: 14.7 µM [falling, single point]",–
Cc1cccc(OCC(=O)NCC2(N3CCN(C)CC3)CCCCC2)c1C,"inconclusive: 26.1 µM [falling, single point]",–
Cc1ccc(Sc2c(C)nn(C(=O)COc3ccccc3)c2C)cc1,active: 6.56 µM,–
Cc1c(Cl)cccc1NC(=O)NCc1c(-n2cccc2)sc2c1CCCC2,–,inactive: 3.66%
Cc1c(C(=O)Nc2cccc(F)c2)oc2c1-c1nn(Cc3c(F)cccc3Cl)cc1CC2,–,inactive: -85.4%
Cc1cccc(NC(=O)c2sc3nc4c(cc3c2N)CCCCCC4)c1C,"inconclusive: 0.329 µM [falling, full curve, poor fit]",–
Cc1ccccc1Nc1c(-c2cccc(N(C)C)c2)nc2ccc(Br)cn12,–,inactive: 24.1%
COc1ccc(CCN2C(=O)c3[nH]nc(-c4ccccc4O)c3C2c2cccc(OC)c2)cc1 (stereo not given),active: 20.7 µM,–
CCc1ccc(NC(=O)C2CCC(CNS(=O)(=O)c3ccc4c(c3)CC(C)N4C(C)=O)CC2)cc1 (stereo not given),–,inactive: 0.227%

# Rewritten as tab-separated lines: five of the compounds above.
Compound	Potency	activity, negative = inhibition
COc1ccc(OC)c(NC(=O)CN2C(=O)COc3ccc(S(=O)(=O)NC4CCCC4)cc32)c1	–	inactive: 0%
COc1ccc2nc(NC(=O)c3nc(S(=O)(=O)Cc4ccccc4)ncc3Cl)sc2c1	active: 5.85 µM	–
Cc1c(Cl)cccc1NC(=O)NCc1c(-n2cccc2)sc2c1CCCC2	–	inactive: 3.66%
Cc1c(C(=O)Nc2cccc(F)c2)oc2c1-c1nn(Cc3c(F)cccc3Cl)cc1CC2	–	inactive: -85.4%
Cc1cccc(NC(=O)c2sc3nc4c(cc3c2N)CCCCCC4)c1C	inconclusive: 0.329 µM [falling, full curve, poor fit]	–
